The record followed here is publication PMC8688524.

In one test the target is COL6A5 H2 region. Nature of the test: co-IP; tagged constructs co-transfected into AGS (Fig. 2B also BGC-823) cells; immunoprecipitation with anti-Flag, anti-Myc or anti-His; antibody overnight at 4 °C, protein A/G agarose 2 h at 4 °C; western blot. On the technique in general: Immunoblotting shows a protein as a band on a membrane.
In a further test the target is COL9A3 M3 region. The test is described as above.

No constants are given. Whether binding was seen depends on the method and setting. In cells and extracts the contact can be indirect. Binding calls can cover weak binding; strength is not graded here. Tags and fused reporters may be left off the sequences shown.

B1: Flag-tagged USP3 (enzyme, UniProt Q9Y6I4 1-520)
chain: MECPHLSSSVCIAPDSAKFPNGSPSSWCCSVCRSNKSPWVCLTCSSVHCGRYVNGHAKKHYEDAQVPLTNHKKSEKQDKVQHTVCMDCSSYSTYCYRCDDFVVNDTKLGLVQKVREHLQNLENSAFTADRHKKRKLLENSTLNSKLLKVNGSTTAICATGLRNLGNTCFMNAILQSLSNIEQFCCYFKELPAVELRNGKTAGRRTYHTRSQGDNNVSLVEEFRKTLCALWQGSQTAFSPESLFYVVWKIMPNFRGYQQQDAHEFMRYLLDHLHLELQGGFNGVSRSAILQENSTLSASNKCCINGASTVVTAIFGGILQNEVNCLICGTESRKFDPFLDLSLDIPSQFRSKRSKNQENGPVCSLRDCLRSFTDLEELDETELYMCHKCKKKQKSTKKFWIQKLPKVLCLHLKRFHWTAYLRNKVDTYVEFPLRGLDMKCYLLEPENSGPESCLYDLAAVVVHHGSGVGSGHYTAYATHEGRWFHFNDSTVTLTDEETVVKAKAYILFYVEHQAKAGSDKL
B1: the binding result with COL6A5 H2 region and with COL9A3 M3 region was “binds” in each case.
